Values of other authors in patent publication US8987285B2, “Pharmaceutical compositions, dosage forms and new forms of the compound of formula (I), and methods of use thereof” (Portola Pharmaceuticals, Inc., priority 2010, dated 2015).
At least one compound was matched to its structure with a doubt left.

Details: cited from earlier work

In the case of OCCN1CCN(CC/C=C2/c3ccccc3Sc3ccc(C(F)(F)F)cc32)CC1 [Flupenthixol], the LogS0 is listed as −4.02 and the Supersaturation ratio is listed as 0.85.
